Results reported in publication PMC10889005.
Results are given in words; binding and its absence hold for the method and conditions named. In cells and extracts the contact can be indirect. Some binding calls cover weakened binding; strength is not graded here. Where a sequence is shown, tags or fusion partners need not be part of it.

The chains behind the UniProt entries cited, without tags or fusion partners.
UniProt O00505: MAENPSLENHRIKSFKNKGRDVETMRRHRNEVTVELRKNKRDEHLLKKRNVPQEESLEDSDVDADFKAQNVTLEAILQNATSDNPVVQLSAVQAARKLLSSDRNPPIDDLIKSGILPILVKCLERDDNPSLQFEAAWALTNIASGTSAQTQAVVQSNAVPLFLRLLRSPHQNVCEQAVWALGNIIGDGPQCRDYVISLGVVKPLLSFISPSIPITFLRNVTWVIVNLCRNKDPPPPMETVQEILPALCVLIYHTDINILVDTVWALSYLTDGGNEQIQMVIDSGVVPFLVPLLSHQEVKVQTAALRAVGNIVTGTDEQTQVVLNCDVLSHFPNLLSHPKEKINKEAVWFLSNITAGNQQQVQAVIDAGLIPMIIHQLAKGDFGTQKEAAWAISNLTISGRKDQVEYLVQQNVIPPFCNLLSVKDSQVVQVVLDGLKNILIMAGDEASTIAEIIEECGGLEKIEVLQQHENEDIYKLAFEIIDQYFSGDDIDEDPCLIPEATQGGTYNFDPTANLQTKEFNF
UniProt O00629: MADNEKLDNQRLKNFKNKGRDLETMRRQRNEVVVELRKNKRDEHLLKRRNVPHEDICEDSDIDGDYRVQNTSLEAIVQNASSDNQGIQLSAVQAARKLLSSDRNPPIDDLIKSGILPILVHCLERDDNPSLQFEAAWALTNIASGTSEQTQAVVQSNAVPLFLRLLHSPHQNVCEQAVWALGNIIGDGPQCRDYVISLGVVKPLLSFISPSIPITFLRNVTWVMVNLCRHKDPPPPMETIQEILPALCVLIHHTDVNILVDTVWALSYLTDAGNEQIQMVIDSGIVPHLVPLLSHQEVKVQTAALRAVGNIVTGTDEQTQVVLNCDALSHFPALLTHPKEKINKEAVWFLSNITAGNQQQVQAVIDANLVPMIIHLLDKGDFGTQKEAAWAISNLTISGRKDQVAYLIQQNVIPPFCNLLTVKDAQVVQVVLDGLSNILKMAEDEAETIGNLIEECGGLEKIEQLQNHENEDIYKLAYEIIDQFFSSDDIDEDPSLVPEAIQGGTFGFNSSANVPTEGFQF
UniProt P52294: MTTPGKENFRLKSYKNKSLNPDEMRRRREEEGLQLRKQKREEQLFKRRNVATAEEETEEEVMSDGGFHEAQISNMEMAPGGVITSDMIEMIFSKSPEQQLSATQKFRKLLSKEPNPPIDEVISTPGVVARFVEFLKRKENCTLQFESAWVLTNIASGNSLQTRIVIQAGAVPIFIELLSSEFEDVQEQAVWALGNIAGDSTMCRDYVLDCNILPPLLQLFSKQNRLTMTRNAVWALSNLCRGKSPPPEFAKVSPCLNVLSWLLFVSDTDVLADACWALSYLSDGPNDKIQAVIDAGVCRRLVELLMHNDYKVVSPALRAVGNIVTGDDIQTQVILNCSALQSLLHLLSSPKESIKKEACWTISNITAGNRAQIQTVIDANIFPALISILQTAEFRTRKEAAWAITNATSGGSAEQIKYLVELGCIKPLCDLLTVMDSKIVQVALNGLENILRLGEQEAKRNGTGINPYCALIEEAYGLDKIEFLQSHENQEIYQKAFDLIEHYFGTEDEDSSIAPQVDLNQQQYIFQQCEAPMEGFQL

How the values were obtained:
Assay in all cases: co-IP
[1] = biological target: Flag-KPNA3 (karyopherin alpha 3, importin alpha) (human) (UniProt O00505)
[2] = biological target: Flag-KPNA4 (karyopherin alpha 4, importin alpha) (human) (UniProt O00629)
[3] = biological target: Flag-KPNA1 (karyopherin alpha 1, importin alpha) (human) (UniProt P52294)

Binder | binding [1] | binding [2] | binding [3]
GST-tagged IRF3 DBD (DNA-binding domain, aa 1-140) (domain or fragment, UniProt Q14653 1-140) MGTPKPRILPWLVSQLDLGQLEGVAWVNKSRTRFRIPWKHGLRQDAQQEDFGIFQAWAEATGAYVPGRDKPDLPTWKRNFRSALNRKEGLRLAEDRSKDPHDPHKIYEFVNSGVGDFSQPDTSPDTNGGGSTSDTQEDIL | binds | binds | binds
Strep-tagged IRF3 (protein, UniProt Q14653 1-427) MGTPKPRILPWLVSQLDLGQLEGVAWVNKSRTRFRIPWKHGLRQDAQQEDFGIFQAWAEATGAYVPGRDKPDLPTWKRNFRSALNRKEGLRLAEDRSKDPHDPHKIYEFVNSGVGDFSQPDTSPDTNGGGSTSDTQEDILDELLGNMVLAPLPDPGPPSLAVAPEPCPQPLRSPSLDNPTPFPNLGPSENPLKRLLVPGEEWEFEVTAFYRGRQVFQQTISCPEGLRLVGSEVGDRTLPGWPVTLPDPGMSLTDRGVMSYVRHVLSCLGGGLALWRAGQWLWAQRLGHCHTYWAVSEELLPNSGHGPDGEVPKDKEGGVFDLGPFIVDLITFTEGSGRSPRYALWFCVGESWPQDQPWTKRLVMVKVVPTCLRALVEMARVGGASSLENTVDLHISNSHPLSLTSDQYKAYLQDLVEGMDFQGPGES | – | – | binds
